This is an account of results in publication doi:10.1101/525576.

Sequences of proteins named here, by UniProt entry; tags and fusion partners are left off. A change or cut given only in a name is not applied to a line headed by its entry.
UniProt Q03181: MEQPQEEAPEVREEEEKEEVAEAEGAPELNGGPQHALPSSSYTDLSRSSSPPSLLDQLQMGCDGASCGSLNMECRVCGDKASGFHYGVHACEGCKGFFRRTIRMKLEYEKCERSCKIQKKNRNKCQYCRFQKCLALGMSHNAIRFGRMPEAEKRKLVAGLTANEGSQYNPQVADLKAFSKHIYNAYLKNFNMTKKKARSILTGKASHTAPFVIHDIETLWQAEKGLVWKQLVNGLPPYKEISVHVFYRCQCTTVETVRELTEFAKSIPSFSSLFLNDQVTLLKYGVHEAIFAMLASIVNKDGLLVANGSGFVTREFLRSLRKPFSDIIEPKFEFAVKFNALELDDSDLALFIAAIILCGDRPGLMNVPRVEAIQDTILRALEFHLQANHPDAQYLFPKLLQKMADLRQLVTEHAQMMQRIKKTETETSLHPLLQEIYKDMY
UniProt O75376: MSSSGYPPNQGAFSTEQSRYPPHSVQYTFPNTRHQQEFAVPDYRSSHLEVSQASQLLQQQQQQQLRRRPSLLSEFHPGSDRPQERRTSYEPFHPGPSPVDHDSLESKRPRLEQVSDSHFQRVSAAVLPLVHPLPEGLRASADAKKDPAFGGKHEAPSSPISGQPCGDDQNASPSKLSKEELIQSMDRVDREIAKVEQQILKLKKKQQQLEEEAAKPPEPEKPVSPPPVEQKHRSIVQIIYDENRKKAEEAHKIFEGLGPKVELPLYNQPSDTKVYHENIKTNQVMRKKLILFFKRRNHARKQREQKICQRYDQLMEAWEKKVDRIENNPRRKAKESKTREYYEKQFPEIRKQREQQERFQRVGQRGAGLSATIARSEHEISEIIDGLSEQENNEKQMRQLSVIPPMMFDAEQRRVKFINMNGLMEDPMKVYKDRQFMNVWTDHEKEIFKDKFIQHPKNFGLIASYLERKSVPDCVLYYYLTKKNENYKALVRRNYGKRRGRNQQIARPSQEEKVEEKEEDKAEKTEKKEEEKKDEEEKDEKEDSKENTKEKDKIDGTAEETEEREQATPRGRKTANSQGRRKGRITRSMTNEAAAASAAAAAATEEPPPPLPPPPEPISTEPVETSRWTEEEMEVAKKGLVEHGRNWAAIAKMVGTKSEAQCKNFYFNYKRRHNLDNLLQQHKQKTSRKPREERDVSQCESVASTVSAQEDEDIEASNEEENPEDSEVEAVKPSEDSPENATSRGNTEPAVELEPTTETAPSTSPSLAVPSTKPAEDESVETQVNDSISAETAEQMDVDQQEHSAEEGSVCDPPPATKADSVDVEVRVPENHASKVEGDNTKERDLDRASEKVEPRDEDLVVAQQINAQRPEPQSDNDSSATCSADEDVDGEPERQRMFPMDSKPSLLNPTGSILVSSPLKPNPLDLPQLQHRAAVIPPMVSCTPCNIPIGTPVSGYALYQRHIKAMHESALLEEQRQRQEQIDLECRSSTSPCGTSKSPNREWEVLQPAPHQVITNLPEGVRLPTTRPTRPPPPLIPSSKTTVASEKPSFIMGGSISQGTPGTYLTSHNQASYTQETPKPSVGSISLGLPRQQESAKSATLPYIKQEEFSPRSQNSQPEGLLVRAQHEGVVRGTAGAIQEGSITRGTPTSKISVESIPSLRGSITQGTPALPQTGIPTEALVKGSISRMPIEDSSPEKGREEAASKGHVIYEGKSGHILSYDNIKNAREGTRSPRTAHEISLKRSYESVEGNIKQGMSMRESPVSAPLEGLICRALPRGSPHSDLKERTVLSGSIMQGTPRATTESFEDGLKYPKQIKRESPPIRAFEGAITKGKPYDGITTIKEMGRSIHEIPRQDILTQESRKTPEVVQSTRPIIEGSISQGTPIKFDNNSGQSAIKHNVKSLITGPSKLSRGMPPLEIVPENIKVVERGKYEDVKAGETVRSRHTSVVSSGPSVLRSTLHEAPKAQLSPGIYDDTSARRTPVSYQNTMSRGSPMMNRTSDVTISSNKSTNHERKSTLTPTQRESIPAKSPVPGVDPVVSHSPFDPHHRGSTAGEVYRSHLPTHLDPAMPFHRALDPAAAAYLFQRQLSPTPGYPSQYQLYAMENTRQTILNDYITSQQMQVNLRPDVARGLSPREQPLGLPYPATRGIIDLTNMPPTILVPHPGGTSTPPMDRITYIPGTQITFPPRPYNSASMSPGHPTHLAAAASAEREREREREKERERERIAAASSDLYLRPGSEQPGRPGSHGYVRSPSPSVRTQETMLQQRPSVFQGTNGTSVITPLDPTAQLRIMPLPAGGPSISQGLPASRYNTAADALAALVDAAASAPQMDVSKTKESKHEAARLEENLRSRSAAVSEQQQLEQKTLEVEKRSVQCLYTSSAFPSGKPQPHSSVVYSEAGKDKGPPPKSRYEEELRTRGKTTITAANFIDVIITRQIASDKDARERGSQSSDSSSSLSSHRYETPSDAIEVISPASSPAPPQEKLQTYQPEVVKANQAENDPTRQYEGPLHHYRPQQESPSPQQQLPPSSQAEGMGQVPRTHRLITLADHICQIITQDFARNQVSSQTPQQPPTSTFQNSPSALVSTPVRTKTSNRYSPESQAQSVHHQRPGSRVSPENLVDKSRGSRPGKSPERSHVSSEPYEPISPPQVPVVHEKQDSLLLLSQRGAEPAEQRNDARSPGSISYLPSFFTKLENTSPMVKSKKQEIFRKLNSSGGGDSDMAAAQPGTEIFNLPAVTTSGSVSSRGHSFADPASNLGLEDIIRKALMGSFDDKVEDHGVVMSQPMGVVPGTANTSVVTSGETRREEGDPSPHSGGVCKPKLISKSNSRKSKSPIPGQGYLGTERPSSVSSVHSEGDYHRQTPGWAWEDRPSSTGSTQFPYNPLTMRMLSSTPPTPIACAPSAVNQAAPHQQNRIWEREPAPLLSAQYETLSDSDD

No constants are given. Whether binding was seen depends on the method and setting. In cells and extracts the contact can be indirect. These calls come from enrichment with a bait or labelling near it, and not all partners need be listed.

This test has as its target PPARβ/δ (peroxisome proliferator activated receptor β/δ) (human (endogenous in MDA-MB231-luc2)) (UniProt Q03181). In words: affinity purification with mass spectrometry.

As to “NCOR (nuclear receptor corepressor) (from UniProt O75376 1-2440)”, the binding entry is “binds”.
